Data taken from PubChem BioAssay AID1053133, deposited by Broad Institute (2014).

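Vaccinia-infected cells with a two-color viral stage reporter; Venus fluorescence read on a plate reader; the cell line is not named here; timing not stated here.
The test concentration is not given here.
Percent change in Venus reporter signal; lower (more negative) values mean stronger inhibition of that viral stage.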

Values are in %.
How 0% and 100% were set is not given here.
Common to all entries: measured here: Venus reporter, other viral stage.
This is a side read-out of the assay, for part of the compounds, not drawn at random.

Compound	activity change (Venus) (%)
COc1ccccc1S(=O)(=O)N(C)C[C@H]1Oc2ncc(-c3ccc(C)cc3)cc2C(=O)N([C@@H](C)CO)C[C@@H]1C	-33.93
O=C(c1ccccc1F)N1CC(=O)N2[C@H](CO)[C@@H](c3ccc(C#Cc4ccccc4)cc3)[C@@H]2C1	-55.29
COc1ccc2c3c(n(C)c2c1)[C@@H](CO)NCC31CCN(CC2CCCC2)CC1	-18.52
C[C@@H]1CCCCO[C@H](CN(C)C(=O)Nc2ccc(C(F)(F)F)cc2)[C@@H](C)CN([C@@H](C)CO)C(=O)c2cc(NC(=O)c3ccncc3)ccc2O1	-30.43
CC(C)CC#Cc1ccc2c(c1)O[C@H](CN(C)Cc1cccnc1)[C@H](C)CN([C@H](C)CO)S2(=O)=O	-33.94
COc1ccccc1C#Cc1ccc([C@H]2[C@@H](C#N)N(C(=O)C3CCCC3)[C@H]2CO)cc1	-35.78
C[C@@H]1CN([C@@H](C)CO)C(=O)c2cc(NC(=O)C3CCCCC3)ccc2O[C@@H](C)CCCCO[C@@H]1CN(C)CC1CCCCC1	-51.03
C[C@@H]1CN([C@@H](C)CO)C(=O)c2cc(C#Cc3cccc(F)c3)cnc2O[C@@H]1CN(C)C(=O)C1CCCCC1	-35.3
O=C(CN1CCOCC1)N1CCCCN2[C@H](C1)[C@H](c1ccc(C#Cc3ccccc3F)cc1)[C@@H]2CO	-92.25
Cc1ccc(-c2ccc3c(c2)O[C@@H](CN(C)C(=O)Nc2ccc(C(F)(F)F)cc2)[C@H](C)CN([C@@H](C)CO)S3(=O)=O)cc1	-51.3
CCCC#Cc1ccc2c(c1)O[C@H](CN(C)Cc1ccncc1)[C@H](C)CN([C@@H](C)CO)S2(=O)=O	-47.79
C[C@@H]1CN([C@@H](C)CO)C(=O)c2cc(NC(=O)C3CC3)ccc2O[C@@H]1CN(C)Cc1ccc(-c2ccccc2)cc1	-44.86
COCCNC(=O)c1cc2c(c(-c3cccc(-c4cccc(OC)c4)c3)n1)[C@@H](CCO)N(S(=O)C(C)(C)C)C2 (stereo partly shown)	-11.83
CN1c2ccc(-c3ccccc3)cc2[C@H]2[C@H](CCN2C(=O)Nc2ccccc2F)[C@H]1CO	-50.2
COc1ccc(NC(=O)N2CCCCN3[C@H](CO)[C@H](c4ccc(-c5ccccc5F)cc4)[C@@H]3C2)cc1	-29.37
C[C@H](CO)N1C[C@H](C)[C@@H](CN(C)C(=O)Nc2ccc(F)cc2)Oc2ncc(C#Cc3ccc(F)cc3)cc2C1=O	-24.41
Cc1ccc(S(=O)(=O)N(C)C[C@H]2OCCCC[C@@H](C)Oc3ccc(NC(=O)NC4CCCCC4)cc3C(=O)N([C@H](C)CO)C[C@H]2C)cc1	-23.75
CC(C)COC(=O)N(C)C[C@H]1OCc2ccccc2-c2c(n(C)c3ccccc23)C(=O)N([C@@H](C)CO)C[C@H]1C	-63.61
CCCNC(=O)N1CC2(CCN(Cc3cccc(OC)c3)CC2)c2c(n(C)c3cc(OC)ccc23)[C@H]1CO	-36.06
C[C@H](CO)N1C[C@H](C)[C@H](CN(C)Cc2ccc(C(F)(F)F)cc2)Oc2c(NC(=O)c3nc4ccccc4s3)cccc2C1=O	-29.61
C[C@H](CO)N1C[C@H](C)[C@H](CN(C)Cc2ccccc2)OCCCC[C@H](C)Oc2ccc(NS(=O)(=O)c3ccc(F)cc3)cc2C1=O	-42.7
C[C@@H]1CN([C@H](C)CO)C(=O)c2cccc(NC(=O)c3ccc(-c4nccs4)cc3)c2O[C@H]1CN(C)Cc1ccc(Cl)c(Cl)c1	-38.35
COc1ccc2c3c(n(C)c2c1)[C@H](CO)N(C(=O)C1CCCC1)CC31CCN(C(=O)Nc2cccc(F)c2)CC1	-38.38
C[C@@H]1CN([C@H](C)CO)S(=O)(=O)c2ccc(C#CCC3CCCC3)cc2O[C@H]1CN(C)C(=O)CC1CC1	-47.43
COc1ccc2c3c(n(C)c2c1)[C@@H](CO)N(C(=O)C1CCOCC1)CC31CCN(C(=O)Nc2cccc(F)c2)CC1	-38.2
N#Cc1ccc(-c2ccc3c(c2)[C@H]2[C@H](CCN2C(=O)C2CCCC2)[C@H](CO)N3)cc1	-24.15
CC(C)CC#Cc1ccc2c(c1)O[C@H](CN(C)C(=O)c1ccccc1)[C@@H](C)CN([C@@H](C)CO)S2(=O)=O	-44.96
C[C@@H]1CCCCO[C@H](CN(C)C(=O)C2CCCCC2)[C@H](C)CN([C@@H](C)CO)C(=O)c2cc(NC(=O)Nc3ccc4c(c3)OCO4)ccc2O1	-35.11
CC(C)CC#Cc1ccc([C@@H]2[C@@H](CO)N3C(=O)CN(S(=O)(=O)c4cccc(F)c4)C[C@H]23)cc1	-57.99
COc1ccc(NC(=O)Nc2ccc3c(c2)C(=O)N([C@H](C)CO)C[C@@H](C)[C@H](CN(C)CC2CCCCC2)OCCCC[C@@H](C)O3)cc1	-68.46
CC(C)NC(=O)Nc1ccc2c(c1)C(=O)N([C@H](C)CO)C[C@@H](C)[C@H](CN(C)Cc1ccc(-c3ccccc3)cc1)O2	-36.22
C[C@@H]1CN([C@@H](C)CO)C(=O)c2cc(C#CC3CCCCC3)cnc2O[C@@H]1CN(C)S(=O)(=O)c1ccc(F)cc1	-40.02
Cc1ccc(S(=O)(=O)N(C)C[C@@H]2Oc3c(NC(=O)Nc4ccccc4)cccc3C(=O)N([C@H](C)CO)C[C@@H]2C)cc1	-29.64
COc1ccc(S(=O)(=O)N2CCCCN3[C@H](CO)[C@@H](c4ccc(C#CC5CC5)cc4)[C@H]3C2)cc1	-46.63

Some entries from above, unchanged:

With C[C@H](CO)N1C[C@H](C)[C@H](CN(C)Cc2ccccc2)OCCCC[C@H](C)Oc2ccc(NS(=O)(=O)c3ccc(F)cc3)cc2C1=O the assay gave activity change (Venus) -42.7%.
With CN1c2ccc(-c3ccccc3)cc2[C@H]2[C@H](CCN2C(=O)Nc2ccccc2F)[C@H]1CO the assay gave activity change (Venus) -50.2%.
With C[C@@H]1CN([C@H](C)CO)C(=O)c2cccc(NC(=O)c3ccc(-c4nccs4)cc3)c2O[C@H]1CN(C)Cc1ccc(Cl)c(Cl)c1 the assay gave activity change (Venus) -38.35%.
With CC(C)COC(=O)N(C)C[C@H]1OCc2ccccc2-c2c(n(C)c3ccccc23)C(=O)N([C@@H](C)CO)C[C@H]1C the assay gave activity change (Venus) -63.61%.